Test results taken from paper PMC4706560.
No constants are given. Whether binding was seen depends on the method and setting. In cells and extracts the contact can be indirect. Binding calls can cover weak binding; strength is not graded here.

Target: T1, Desmoglein 3 (human (endogenous in HaCaT)) (UniProt P32926)
T1 sequence: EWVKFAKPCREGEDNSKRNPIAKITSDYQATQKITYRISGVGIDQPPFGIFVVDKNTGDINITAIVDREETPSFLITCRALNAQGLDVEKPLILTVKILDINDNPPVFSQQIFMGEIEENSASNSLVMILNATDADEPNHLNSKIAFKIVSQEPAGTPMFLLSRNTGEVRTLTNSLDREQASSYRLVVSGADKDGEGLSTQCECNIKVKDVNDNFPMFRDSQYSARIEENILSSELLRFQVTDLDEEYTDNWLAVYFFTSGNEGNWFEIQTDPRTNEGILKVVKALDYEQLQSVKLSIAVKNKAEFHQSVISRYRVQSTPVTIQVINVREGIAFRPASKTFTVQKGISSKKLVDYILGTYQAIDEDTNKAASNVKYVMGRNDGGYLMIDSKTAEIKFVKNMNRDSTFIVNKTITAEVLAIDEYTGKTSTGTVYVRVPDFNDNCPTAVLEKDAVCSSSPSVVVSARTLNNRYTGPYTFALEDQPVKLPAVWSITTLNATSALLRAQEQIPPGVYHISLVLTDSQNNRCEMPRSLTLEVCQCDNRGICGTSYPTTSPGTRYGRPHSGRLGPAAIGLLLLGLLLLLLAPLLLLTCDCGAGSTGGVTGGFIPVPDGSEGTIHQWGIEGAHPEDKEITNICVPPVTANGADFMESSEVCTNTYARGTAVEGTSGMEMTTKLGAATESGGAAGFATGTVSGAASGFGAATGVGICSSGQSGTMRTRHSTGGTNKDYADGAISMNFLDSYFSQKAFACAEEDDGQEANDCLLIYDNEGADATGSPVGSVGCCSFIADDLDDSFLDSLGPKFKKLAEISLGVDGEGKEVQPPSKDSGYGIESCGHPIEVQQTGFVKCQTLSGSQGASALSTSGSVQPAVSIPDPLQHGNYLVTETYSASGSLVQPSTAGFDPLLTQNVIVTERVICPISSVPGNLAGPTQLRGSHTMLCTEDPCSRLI
Test: co-IP; immunoprecipitation with mouse antibody against Dsg3 from Triton X-100-soluble and -insoluble fractions of HaCaT cells, 500 µg protein of each fraction; Western blotting

binding: binds
Substance: E-cadherin (human (endogenous in HaCaT))
